From patent US20100093634A1 (UNIVERSITY OF MARYLAND BALTIMORE, published 2010)
These are yes or no findings as the source states them, for the method shown. In cells and extracts the contact can be indirect. Some binding calls cover weakened binding; strength is not graded here. For some assays here: Tags and fused reporters may be left off the sequences shown.

Key:
[1] = target: T1, Recombinant His-tagged ARH protein (autosomal recessive hypercholesterolemia protein) (human) (UniProt Q5SW96); experiment: pull-down of the GST fusion on His-tagged adaptor on Ni-NTA beads, anti-GST Western blot
T1 sequence: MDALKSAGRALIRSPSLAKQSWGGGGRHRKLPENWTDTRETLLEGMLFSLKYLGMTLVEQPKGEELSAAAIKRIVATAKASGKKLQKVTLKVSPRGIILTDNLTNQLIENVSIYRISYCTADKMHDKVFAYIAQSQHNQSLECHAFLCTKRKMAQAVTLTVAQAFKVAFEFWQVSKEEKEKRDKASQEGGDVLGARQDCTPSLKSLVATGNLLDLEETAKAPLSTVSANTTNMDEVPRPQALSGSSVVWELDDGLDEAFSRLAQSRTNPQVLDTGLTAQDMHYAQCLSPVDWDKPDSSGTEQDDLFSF

[2] = target: T2, ARH from whole rat kidney extracts (rat) (UniProt D3ZAR1); experiment: co-immunoprecipitation from whole rat kidney extracts, Western blot
T2 sequence (looked up): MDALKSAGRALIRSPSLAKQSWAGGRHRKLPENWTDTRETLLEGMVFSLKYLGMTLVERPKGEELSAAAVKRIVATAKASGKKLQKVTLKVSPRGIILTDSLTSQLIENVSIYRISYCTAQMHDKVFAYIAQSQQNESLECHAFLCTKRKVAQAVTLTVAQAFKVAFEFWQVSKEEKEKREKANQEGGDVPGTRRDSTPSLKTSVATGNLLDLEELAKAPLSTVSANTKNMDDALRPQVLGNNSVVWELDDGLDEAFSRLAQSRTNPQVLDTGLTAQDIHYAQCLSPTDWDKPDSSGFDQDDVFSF

B1: GST fusion of the wild-type (WT) ROMK1 C-terminus (amino acids 349-391) (peptide, not shown: a dimerising Fc or GST)
chain: EVETPHCAMCLYNEKDARARMKRGYDNPNFVLSEVDETDDTQM
- binding [1]: binds

B2: ROMK channel from whole rat kidney extracts (protein)
chain: MGASERSVFRVLIRALTERMFKHLRRWFITHIFGRSRQRARLVSKEGRCNIEFGNVDAQSRFIFFVDIWTTVLDLKWRYKMTVFITAFLGSWFLFGLLWYVVAYVHKDLPEFYPPDNRTPCVENINGMTSAFLFSLETQVTIGYGFRFVTEQCATAIFLLIFQSILGVIINSFMCGAILAKISRPKKRAKTITFSKNAVISKRGGKLCLLIRVANLRKSLLIGSHIYGKLLKTTITPEGETIILDQTNINFVVDAGNENLFFISPLTIYHIIDHNSPFFHMAAETLSQQDFELVVFLDGTVESTSATCQVRTSYVPEEVLWGYRFVPIVSKTKEGKYRVDFHNFGKTVEVETPHCAMCLYNEKDARARMKRGYDNPNFVLSEVDETDDTQM
- binding [2]: binds
